Drawing on the supplement of paper PMC11264405, this text covers minimum inhibitory concentration for twelve test systems.

Holding throughout (assay): minimum inhibitory concentration
Compound in one assay: CN(C)c1cc(NC(=O)CNC(C)(C)C)c(O)c2c1C[C@H]1C[C@H]3[C@H](N(C)C)C(O)=C(C(N)=O)C(=O)[C@@]3(O)C(O)=C1C2=O [tigecycline]
Compound in the next assay: CO[C@H]1/C=C/O[C@@]2(C)Oc3c(C)c(O)c4c(O)c(c(/C=N/N5CCN(C)CC5)c(O)c4c3C2=O)NC(=O)/C(C)=C\C=C\[C@H](C)[C@H](O)[C@@H](C)[C@@H](O)[C@@H](C)[C@H](OC(C)=O)[C@@H]1C [rifampicin]
Compound in the next assay: C[C@@H](O)[C@H]1C(=O)N2C(C(=O)O)=C(SCCNC=N)C[C@H]12 [imipenem]
Compound in the next assay: CC(=O)NC[C@H]1CN(c2ccc(N3CCOCC3)c(F)c2)C(=O)O1 [linezolid]
Compound in a further assay: Cc1ncc([N+](=O)[O-])n1CCO [metronidazole]
Compound in a further assay: CN[C@H](CC(C)C)C(=O)N[C@H]1C(=O)N[C@@H](CC(N)=O)C(=O)N[C@H]2C(=O)N[C@H]3C(=O)N[C@H](C(=O)N[C@H](C(=O)O)c4cc(O)cc(O)c4-c4cc3ccc4O)[C@H](O)c3ccc(c(Cl)c3)Oc3cc2cc(c3O[C@@H]2O[C@H](CO)[C@@H](O)[C@H](O)[C@H]2O[C@H]2C[C@](C)(N)[C@H](O)[C@H](C)O2)Oc2ccc(cc2Cl)[C@H]1O [vancomycin]
Compound in a further assay: C[C@@H](O)[C@H]1C(=O)N2C(C(=O)O)=C(S[C@@H]3CN[C@H](C(=O)N(C)C)C3)[C@H](C)[C@H]12 [meropenem]
Compound in another assay: CCc1c(Cl)c(O)c(Cl)c(O)c1C(=O)O[C@H]1[C@H](O)[C@H](OC)[C@H](OC/C2=C\C=C\C[C@H](O)/C(C)=C/[C@H](CC)[C@@H](O[C@@H]3OC(C)(C)[C@@H](OC(=O)C(C)C)[C@H](O)[C@@H]3O)/C(C)=C/C(C)=C/C[C@@H]([C@@H](C)O)OC2=O)O[C@@H]1C [fidaxomicin]
Compound in another assay: CCC[C@@H]1C[C@@H](C(=O)N[C@@H]([C@H]2O[C@H](SC)[C@H](O)[C@@H](O)[C@H]2O)[C@H](C)Cl)N(C)C1 [clindamycin]

“Clostridioides difficile PCR ribotype 078 isolate #359 (European region: North, country: Sweden, isolate source: Animal, ribotype: 078)”: the minimum inhibitory concentration is 0.06 µg/mL with tigecycline; less than 0.001 µg/mL in the assay with rifampicin; 4 µg/mL with imipenem; 4 µg/mL with linezolid; 0.25 µg/mL with metronidazole; 0.5 µg/mL in the assay with vancomycin. Besides, the minimum inhibitory concentration with meropenem is 4 µg/mL; in the assay with fidaxomicin, 0.015 µg/mL; in the assay with clindamycin it was 2 µg/mL.

Regarding “Clostridioides difficile PCR ribotype 078 isolate #360 (European region: South, country: Italy, isolate source: Animal, ribotype: 078)”, the minimum inhibitory concentration with tigecycline was 0.06 µg/mL; in the assay with rifampicin it was less than 0.001 µg/mL; in the assay with imipenem, 2 µg/mL; with linezolid it was 2 µg/mL; with metronidazole, 0.25 µg/mL; with vancomycin it was 1 µg/mL. Also, the values for the minimum inhibitory concentration with meropenem, in the assay with fidaxomicin and in the assay with clindamycin were 4 µg/mL, 0.015 µg/mL and 8 µg/mL, respectively.

With “Clostridioides difficile PCR ribotype 078 isolate #361 (European region: South, country: Italy, isolate source: Animal, ribotype: 078)”, the minimum inhibitory concentration in the assay with tigecycline was 0.06 µg/mL; with rifampicin, less than 0.001 µg/mL; in the assay with imipenem, 2 µg/mL; with linezolid, 2 µg/mL; with metronidazole, less than 0.125 µg/mL; with vancomycin, 1 µg/mL. Besides, the minimum inhibitory concentration in the assay with meropenem is 2 µg/mL; in the assay with fidaxomicin, 0.03 µg/mL; with clindamycin, 8 µg/mL.

Take “Clostridioides difficile PCR ribotype 078 isolate #362 (European region: South, country: Italy, isolate source: Animal, ribotype: 078)”: the minimum inhibitory concentration with tigecycline is 0.06 µg/mL; in the assay with rifampicin it was less than 0.001 µg/mL; with imipenem, 2 µg/mL; in the assay with linezolid it was 2 µg/mL; with metronidazole, less than 0.125 µg/mL; with vancomycin it was 1 µg/mL. Besides, the minimum inhibitory concentration with meropenem worked out at 2 µg/mL; with fidaxomicin it was 0.03 µg/mL; in the assay with clindamycin, 16 µg/mL.

As to “Clostridioides difficile PCR ribotype 078 isolate #363 (European region: South, country: Italy, isolate source: Animal, ribotype: 078)”, the minimum inhibitory concentration was 0.125 µg/mL with tigecycline; less than 0.001 µg/mL with rifampicin; 2 µg/mL with imipenem; 2 µg/mL with linezolid; less than 0.125 µg/mL in the assay with metronidazole; 1 µg/mL with vancomycin. Also, the results for the minimum inhibitory concentration in the assay with meropenem, with fidaxomicin and with clindamycin were 4 µg/mL, 0.03 µg/mL and 8 µg/mL, respectively.

With “Clostridioides difficile PCR ribotype 078 isolate #364 (European region: South, country: Italy, isolate source: Animal, ribotype: 078)”, the minimum inhibitory concentration with tigecycline is 0.125 µg/mL; with rifampicin, less than 0.001 µg/mL; with imipenem it was 2 µg/mL; with linezolid, 2 µg/mL; in the assay with metronidazole, less than 0.125 µg/mL; with vancomycin it was 1 µg/mL. Moreover, the minimum inhibitory concentration with meropenem was determined as 2 µg/mL; with fidaxomicin, 0.015 µg/mL; in the assay with clindamycin, 8 µg/mL.

For “Clostridioides difficile PCR ribotype 078 isolate #365 (European region: South, country: Italy, isolate source: Animal, ribotype: 078)”, the minimum inhibitory concentration with tigecycline is 0.06 µg/mL; with rifampicin, less than 0.001 µg/mL; with imipenem, 2 µg/mL; in the assay with linezolid, 2 µg/mL; in the assay with metronidazole it was less than 0.125 µg/mL; with vancomycin, 1 µg/mL. The minimum inhibitory concentration was determined as 4 µg/mL with meropenem, 0.015 µg/mL with fidaxomicin and 4 µg/mL in the assay with clindamycin.

For “Clostridioides difficile PCR ribotype 078 isolate #366 (European region: West, country: Austria, isolate source: Animal, ribotype: 078)”, the minimum inhibitory concentration was 0.06 µg/mL with tigecycline; less than 0.001 µg/mL with rifampicin; 2 µg/mL with imipenem; 4 µg/mL with linezolid; 0.25 µg/mL with metronidazole; 0.5 µg/mL with vancomycin. Further, the minimum inhibitory concentration with meropenem stood at 2 µg/mL; with fidaxomicin it was 0.03 µg/mL; with clindamycin it was 2 µg/mL.

“Clostridioides difficile PCR ribotype 078 isolate #367 (European region: East, country: Poland, isolate source: Animal, ribotype: 078)”: the minimum inhibitory concentration is 0.06 µg/mL in the assay with tigecycline; less than 0.001 µg/mL with rifampicin; 4 µg/mL with imipenem; 4 µg/mL with linezolid; 0.25 µg/mL in the assay with metronidazole; 0.5 µg/mL in the assay with vancomycin. Also, the values for the minimum inhibitory concentration in the assay with meropenem, with fidaxomicin and with clindamycin were 4 µg/mL, 0.03 µg/mL and greater than 128 µg/mL, respectively.

Turning to “Clostridioides difficile PCR ribotype 078 isolate #368 (European region: East, country: Poland, isolate source: Animal, ribotype: 078)”, the minimum inhibitory concentration with tigecycline is 0.06 µg/mL; with rifampicin, less than 0.001 µg/mL; with imipenem, 4 µg/mL; with linezolid it was 4 µg/mL; with metronidazole, 0.25 µg/mL; with vancomycin, 0.5 µg/mL. In addition, the minimum inhibitory concentration in the assay with meropenem came to 4 µg/mL; with fidaxomicin it was 0.03 µg/mL; in the assay with clindamycin, 2 µg/mL.

Take “Clostridioides difficile PCR ribotype 078 isolate #369 (European region: East, country: Poland, isolate source: Animal, ribotype: 078)”: the minimum inhibitory concentration with tigecycline was less than 0.03 µg/mL; in the assay with rifampicin, less than 0.001 µg/mL; with imipenem it was 2 µg/mL; with linezolid, 2 µg/mL; in the assay with metronidazole, less than 0.125 µg/mL; with vancomycin, 1 µg/mL. For the same test system, the minimum inhibitory concentration amounted to 2 µg/mL with meropenem, 0.06 µg/mL in the assay with fidaxomicin and 4 µg/mL with clindamycin.

As for “Clostridioides difficile PCR ribotype 078 isolate #370 (European region: East, country: Poland, isolate source: Animal, ribotype: 078)”, the minimum inhibitory concentration in the assay with tigecycline was less than 0.03 µg/mL; with rifampicin, less than 0.001 µg/mL; in the assay with imipenem, 2 µg/mL; with linezolid it was 2 µg/mL; with metronidazole, less than 0.125 µg/mL; with vancomycin, 1 µg/mL. The figures for the minimum inhibitory concentration with meropenem, in the assay with fidaxomicin and in the assay with clindamycin were 2 µg/mL, 0.03 µg/mL and 4 µg/mL, respectively.
